Test results published in PMC3950292.
No constants are given. Whether binding was seen depends on the method and setting. Binding seen in cells or lysates may run through a third protein. Some binding calls cover weakened binding; strength is not graded here.

The chains behind the UniProt entries cited, without tags or fusion partners.
UniProt Q99836: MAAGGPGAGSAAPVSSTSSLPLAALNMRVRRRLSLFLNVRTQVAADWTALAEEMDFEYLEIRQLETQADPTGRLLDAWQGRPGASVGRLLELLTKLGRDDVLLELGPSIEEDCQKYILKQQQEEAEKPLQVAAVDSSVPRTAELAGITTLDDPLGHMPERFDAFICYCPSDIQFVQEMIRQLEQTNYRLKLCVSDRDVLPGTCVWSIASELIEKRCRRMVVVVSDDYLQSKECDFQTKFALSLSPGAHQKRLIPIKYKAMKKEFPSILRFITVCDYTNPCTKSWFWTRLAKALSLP
UniProt Q6WB96: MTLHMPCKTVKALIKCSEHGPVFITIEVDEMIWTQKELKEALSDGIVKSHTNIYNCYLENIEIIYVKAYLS

Tests used:
[1] = biological target: HA-tagged MyD88 (UniProt Q99836); assay: co-IP; 293 cells cotransfected with HA-MyD88 and V5-M2-2, lysed 30 h after transfection; IP with anti-V5 and blot with anti-HA, and reverse (IP anti-HA, blot anti-V5); protein A/G-agarose, 4°C, washes of different ionic strength (Roche kit)
[2] = biological target: V5-tagged hMPV M2-2 protein (human metapneumovirus (hMPV)) (UniProt Q6WB96); assay: as above
[3] = biological target: endogenous MyD88 (human (endogenous in THP1)) (UniProt Q99836); assay: co-IP; THP1 cells mock infected or infected with rhMPV-WT or -ΔM2-2, MOI 5, 24 h; lysate IP with anti-MyD88 or isotype control, blot with anti-hMPV antibody

## V5-tagged hMPV M2-2 protein (from UniProt Q6WB96 1-71)
[1]
  binding: binds

## HA-tagged MyD88 (from UniProt Q99836 1-296)
[2]
  binding: binds

## viral M2-2 protein (from rhMPV-WT infection) (from UniProt Q6WB96 1-71)
[3]
  binding: binds
